Data on six compounds can be found in patent publication US7563613B2, “Detoxification and decontamination using nanotechnology therapy” (University of Florida, priority 2001, dated 2009).

The nature of data set [1]: proton NMR shift of donor-trinitrobenzene pi-pi complexes. The class given is physicochemical. The following applies: chloroform-d.
Data set [2] can be described thus: proton NMR shift of donor-N-methyl-3,5-dinitrobenzamide pi-pi complexes. The data set is classed as physicochemical.
[3] abbreviates: chloroform-d, [donor:acceptor] = 60:1.
[4] abbreviates: 50:50 D20:CD3CN, [Donor:Acceptor] = 60:1.

Structures are written as SMILES. Where a name gives a salt, the structure may show the parent alone.

Take `Cc1ccc(N)c(C)c1` [2,4-Dimethylaniline]: in data set [1] ([donor:acceptor] = 60:1), the Direction of shift result was “Upfield” and the “Shift (ppm, for acceptor)” value is 0.3086 ppm.

In the case of `CC(=O)Nc1c(C)cccc1C` [2,6-Dimethyl-acetanilide], in data set [2] (chloroform-d, [D:A] = 1:1), the “Direction of shift, Doublet” value is “Downfield”; the “Direction of shift, Triplet” value is “Upfield”; the “Shift (ppm, acceptor), Doublet” value came out at 0.00775 ppm; the “Shift (ppm, acceptor), Triplet” value is on record as 0.0156 ppm. Also, in data set [2] (setting [3]), the “Direction of shift, Doublet” value is recorded as “Upfield”; the “Direction of shift, Triplet” value is listed as “Upfield”; the “Shift (ppm, acceptor), Doublet” value is 0.0055 ppm; the “Shift (ppm, acceptor), Triplet” value turned out to be 0.1584 ppm.

As for `Cc1cccc(C)c1N` [2,6-Dimethylaniline], in data set [1] ([donor:acceptor] = 60:1), the Direction of shift result is recorded as “Upfield” and the “Shift (ppm, for acceptor)” value came out at 0.2995 ppm. Further, in data set [2] (setting [3]), the “Direction of shift, Doublet” value is given as “Upfield”; the “Direction of shift, Triplet” value is listed as “Upfield”; the “Shift (ppm, acceptor), Doublet” value was “Doublet 0.0779 ppm”; the “Shift (ppm, acceptor), Triplet” value is reported as “Triplet 0.0874 ppm”.

On to `COc1ccc(C)cc1OC` [3,4-Dimethoxytoluene], for which, in data set [1] ([donor:acceptor] = 60:1), the Direction of shift result is given as “Upfield” and the “Shift (ppm, for acceptor)” value came to 0.2730 ppm. In data set [1] (at concentration in literature), the Direction of shift entry is given as “Upfield” and the “Shift (ppm, for acceptor)” value is recorded as 0.1868 ppm.

For `Cc1cc(C)cc(N)c1` [3,5-Dimethylaniline], in data set [1] ([donor:acceptor] = 60:1), the Direction of shift result is given as “Upfield” and the “Shift (ppm, for acceptor)” value was determined as 0.2647 ppm.

For `CCCCN1CCCCC1C(=O)Nc1c(C)cccc1C` (centres unmarked) [Bupivacaine (salt), Bupivacaine], in data set [2] (setting [4]), the “Direction of shift, Doublet” value was “Upfield”; the “Direction of shift, Triplet” value is “Upfield”; the “Shift (ppm, acceptor), Doublet” value is listed as “Doublet 0.0275 ppm”; the “Shift (ppm, acceptor), Triplet” value was “Triplet 0.0891 ppm”.
